Among all 400,000 compounds or so, about 13,000 (3.2%) were called active. This list was built around the results that the source calls inconclusive (neither active nor inactive); the mix of calls is not that of the screen. The call rests on the fitted dose curve; in most records, active means well fitted cell-killing curve with a large enough effect; inconclusive means small, poorly fitted or top-dose-only effect, or effect the other way; inactive means flat fitted curve, though single readings scatter. A potency beside an inconclusive call is a rough fit, not a confirmed value.
Assay: qHTS assay for MDR1-selective chemotherapeutics: Primary screen using the drug-selected MDR subline cells KB-V1; further: nearly all actives have a fitted effect of over 60% in size
Conditions: KB-V1 MDR cells viability, CellTiter-Glo, 72 h; activity change, negative = cytotoxicity: at 46.1 µM (top of the series)
Summary of the method: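 Luminescent ATP read-out (CellTiter-Glo, 10 min) measures survival of drug-selected KB-V1 MDR cells after 72 h, 37 degrees C compound exposure. Medium: phenol-red-free DMEM, 10% FBS. Values from fitted concentration-response curves.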
On the % scale 0 is the no-effect control and ±100 the full control effect; potency means the concentration at half of the fitted maximal effect.

Row | Structure (SMILES) | Potency | activity change, negative = cytotoxicity
1 | O=C(CN1C(=O)NC(Cc2ccccc2)C1=O)Nc1ccc(OC(F)(F)F)cc1 (stereo not given) | inconclusive: 29.1 µM [rising, single point] | –
2 | CCN1CCCC1CNC(=O)c1ccc2c(c1)N(Cc1cccc(Cl)c1)C(=O)c1ccccc1S2(=O)=O (stereo not given) | inconclusive: 0.517 µM [rising, full curve, poor fit] | –
3 | Cc1ccccc1NC(=O)c1sc(NC(=O)COc2ccccc2)c(C#N)c1C | inconclusive: 8.2 µM [cytotoxic, partial curve] | –
4 | Cc1ccc(CN(C(=O)c2ccco2)C(C(=O)NC2CCCC2)c2ccc(N3CCOCC3)cc2)cc1 (stereo not given) | inconclusive: 29.1 µM [cytotoxic, single point] | –
5 | Cc1ccc(S(=O)(=O)N2CCCCC2CCNC(=O)C(=O)NCc2ccccc2)cc1 (stereo not given) | active: 4.11 µM | –
6 | COc1ccc(NC(=O)CCN2C(=O)C3CC=CCC3C2=O)cc1S(=O)(=O)N1CCCCC1 (stereo not given) | inconclusive: 29.1 µM [rising, single point] | –
7 | CC(=O)c1cccc(NC(=O)CSCc2ccc(Br)cc2)c1 | active: 18.4 µM | –
8 | Cc1ccc(/C=C(\C#N)C(=O)Nc2cccc3ncccc23)o1 | inconclusive: 11.6 µM [cytotoxic, partial curve] | –
9 | CCOC(=O)c1c(C)[nH]c(C)c1S(=O)(=O)Nc1ccc(CN2CCCCC2)cc1 | inconclusive: 3.66 µM [rising, full curve] | –
10 | COc1ccc(Nc2nc(N3CCCC3)c3ccccc3n2)cc1 | inconclusive: 2.31 µM [cytotoxic, full curve, poor fit] | –
11 | C=CCOC(=O)C1=C(C)Nc2ncnn2C1c1cc(Br)ccc1F (stereo not given) | inconclusive: 18.4 µM [cytotoxic, partial curve] | –
12 | Cc1cc(NCC2CCCCC2)nc2ccccc12 | active: 9.2 µM | –
13 | COc1ccc(NC(=O)c2cccc(S(=O)(=O)N3CCOCC3)c2)cc1 | inconclusive: 29.1 µM [cytotoxic, partial curve, poor fit] | –
14 | Cc1ccc(C(=O)N2CCc3ccccc32)cc1[N+](=O)[O-] | inconclusive: 0.0411 µM [cytotoxic, partial curve, poor fit] | –
15 | CC1=CC(C)(C)n2c(O)c(N=NC(N)=S)c3c(C)ccc1c32 | inconclusive: 5.8 µM [cytotoxic, full curve] | –
16 | Cc1cccc(NC(=O)c2c(C)nc3ccccn23)c1 | inconclusive: 9.2 µM [cytotoxic, partial curve] | –
17 | COCCCNC(=O)Cc1c(C)c2c(cc(C)c3c(C(C)(C)C)coc32)oc1=O | active: 5.17 µM | –
18 | O=C(NC1=NCCS1)c1cc(-c2ccccc2)nn1-c1ccccc1 | inconclusive: 0.103 µM [rising, full curve] | –
19 | O=S(=O)(c1ccccc1)c1nc(-c2ccccc2F)oc1NCc1cccnc1 | inconclusive: 9.2 µM [cytotoxic, partial curve] | –
20 | O=C(O)c1ccc(CNC(=O)C2CCCN2C(=O)OCc2ccccc2)cc1 (stereo not given) | – | inactive: 0.75%
21 | Cc1ccc(-c2nc(N)n(S(C)(=O)=O)n2)cc1 | inconclusive: 9.2 µM [rising, partial curve] | –
22 | Cc1ccsc1/C=C(\C#N)C(=O)Nc1c(C)n(C)n(-c2ccccc2)c1=O | inconclusive: 10.3 µM [cytotoxic, partial curve] | –

Random excerpt: 2 compounds from above, in no set order.
Row | Structure (SMILES) | Potency | activity change, negative = cytotoxicity
16 | Cc1cccc(NC(=O)c2c(C)nc3ccccn23)c1 | inconclusive: 9.2 µM [cytotoxic, partial curve] | –
4 | Cc1ccc(CN(C(=O)c2ccco2)C(C(=O)NC2CCCC2)c2ccc(N3CCOCC3)cc2)cc1 (stereo not given) | inconclusive: 29.1 µM [cytotoxic, single point] | –

(cont.)

Row | Structure (SMILES) | Potency | activity change, negative = cytotoxicity
23 | COc1ccc(COc2cc(-c3cccc(OC)c3)nc3ccc(N)cc23)cc1 | active: 5.8 µM | –
24 | CCOc1ccccc1N1CCN(CC(O)COc2ccc3c(C)cc(=O)oc3c2)CC1 (stereo not given) | inconclusive: 9.2 µM [cytotoxic, partial curve, poor fit] | –
25 | CCOc1ccc(S(=O)(=O)N2CCCC(C(=O)NCc3ccccn3)C2)cc1C (stereo not given) | inconclusive: 20.6 µM [cytotoxic, partial curve] | –
26 | Cc1c(C(=O)O)c(O)cc2c1C(=O)c1c(O)c([C@H]3O[C@H](CO)[C@@H](O)[C@H](O)[C@H]3O)c(O)c(O)c1C2=O | – | inactive: -31.7%
27 | CCOc1ccc2[nH]c3ncccc3c(=O)c2c1 | inconclusive: 8.2 µM [cytotoxic, partial curve, poor fit] | –
28 | CS(=O)(=O)Oc1ccc2c(c1)O/C(=C\c1cccc([N+](=O)[O-])c1)C2=O | – | inactive: 5.38%
29 | Cc1cccc(COCC(CC(C)C)N2CCN(C(=O)c3ccc(C(F)(F)F)cc3)CCC2=O)c1 (stereo not given) | – | inactive: -1.83%
30 | O=C(CSc1ccc(-c2ccco2)nn1)c1ccc(F)cc1 | active: 25.9 µM | –
31 | O=C(/C=C/Nc1ccccc1)c1cnc(-c2ccccc2)s1 | inconclusive: 29.1 µM [rising, single point] | –
32 | Cc1cc(C)c(C)c(S(=O)(=O)NCC(=O)Nc2ccccc2F)c1C | inconclusive: 18.4 µM [cytotoxic, partial curve] | –
33 | C#CCOCCOCCOCCNc1nc(N2CCN(C(=O)Cn3cc(CC(C)O)nn3)CC2)nc(N2CCN(C(=O)[C@H](CCCCN)n3cc(CCCC)nn3)CC2)n1 (stereo not given in full) | – | inconclusive: 42.2%
34 | O=C(Cn1nc(C(=O)O)c2ccccc2c1=O)Nc1cccc(S(=O)(=O)N2CCOCC2)c1 | inconclusive: 29.1 µM [rising, single point] | –
35 | CCc1nc2c(OCc3ccc(OC(F)F)cc3)cccn2c1N(C)C(=O)c1ccc(OC)cc1 | inconclusive: 20.6 µM [cytotoxic, single point] | –
36 | CC1=CC(c2ccccc2)n2nc(NC(=O)CCCC(=O)O)nc2N1 (stereo not given) | inconclusive: 29.1 µM [rising, single point] | –
37 | N/C(=N\OS(=O)(=O)c1ccc(Cl)cc1)c1ccccn1 | inconclusive: 29.1 µM [cytotoxic, single point] | –
38 | Cc1ccc2nc(-c3ccccc3)c(CN3CCOCC3)n2c1 | – | inactive: 30.2%
39 | CCc1n[nH]c2c1/C(=N\O)CC(c1ccccc1)C2 (stereo not given) | inconclusive: 20.6 µM [cytotoxic, single point] | –
40 | Cc1[nH]c(=O)[nH]c(=O)c1S(=O)(=O)Nc1cccc(Cl)c1C | inconclusive: 29.1 µM [rising, single point] | –
41 | Cc1cccc(C(=O)NC(=S)N2CCN(c3ccc([N+](=O)[O-])cc3)CC2)c1 | inconclusive: 1.3 µM [cytotoxic, full curve] | –
42 | O=c1[nH]c(=O)n([C@H]2C[C@@H](O)[C@@H](CO)O2)cc1F | – | inactive: -20%
43 | COc1ccccc1NC(=O)c1sc2nc(-c3cc4cc(Cl)ccc4oc3=O)[nH]c(=O)c2c1C | inconclusive: 29.1 µM [rising, single point] | –
44 | Cc1ccc(CNC(=O)c2oc3ccc(S(=O)(=O)N4CCCC(C)C4)cc3c2C)cc1 (stereo not given) | – | inactive: -24.1%

Row | Structure (SMILES) | Potency | activity change, negative = cytotoxicity
45 | CCCc1c(C(=O)N/N=C/c2ccco2)nnn1-c1nonc1N | – | inconclusive: 17%
46 | O=C(Cc1ccc2c(c1)OCO2)NN=Cc1ccc([N+](=O)[O-])o1 | active: 23.1 µM | –
47 | C=CCONC(=O)c1cc(OCC(F)(F)F)ccc1OCC(F)(F)F | inconclusive: 18.4 µM [cytotoxic, partial curve, poor fit] | –
48 | CC1(c2cccc([N+](=O)[O-])c2)CC(C)(C)N(C(=O)c2ccccc2)c2ccccc21 (stereo not given) | inconclusive: 20.6 µM [cytotoxic, single point] | –
49 | CCN(CC)S(=O)(=O)c1cc(C(=O)NCCN2CCOCC2)ccc1Cl | inconclusive: 3.26 µM [rising, partial curve, poor fit] | –
50 | CC(OC(=O)CCC1CCCCC1)C(=O)Nc1ccc(S(N)(=O)=O)cc1 (stereo not given) | – | inactive: 4.48%
51 | COc1ccc(CNC(=O)c2ccc3c(c2)N=C(C)c2c(C)ccc(C)c2S3)cc1 | active: 1.84 µM | –
52 | CC(=O)N1CCN(c2ccccc2NC(=O)Cc2ccc(Cl)cc2)CC1 | inconclusive: 10.3 µM [cytotoxic, partial curve] | –
53 | CC1CN(c2sc(S(C)(=O)=O)nc2S(=O)(=O)c2ccc(Cl)cc2)CC(C)O1 (stereo not given) | – | inactive: -11.2%
54 | CSc1ncccc1C(=O)OCC(=O)c1cc(C)n(C)c1C | inconclusive: 6.51 µM [cytotoxic, partial curve] | –
55 | Cc1cccc(C)c1N1CCN(S(=O)(=O)N2CCCCC2)CC1 | inconclusive: 18.4 µM [cytotoxic, partial curve, poor fit] | –
56 | C=C1C(=O)OC2C=C(CO)C3OC3C3OC3(C)CC(OC(=O)/C(=C/C)COC(C)=O)C12 (stereo not given) | – | inactive: -8.22%
57 | CC(=O)c1cccc(-c2cnc3c(NC=O)cc(-c4ccccc4F)cn23)c1 | inconclusive: 20.6 µM [cytotoxic, single point] | –
58 | Cc1ccc(S(=O)(=O)N(C)C)cc1NC(=O)c1cncc(Br)c1 | inconclusive: 25.9 µM [cytotoxic, partial curve, poor fit] | –
59 | CCOC(=O)c1c(S(=O)(=O)N2CCC(C(=O)Nc3ccc(C)cn3)CC2)c(C)n(C)c1C | inconclusive: 16.4 µM [rising, single point] | –
60 | N#C/C(=N\Nc1ccccc1Cl)C(=O)c1ccccc1 | inconclusive: 8.2 µM [cytotoxic, partial curve] | –
61 | COc1cc(OC)c(NC(=O)Cc2ccc(OC)c(S(=O)(=O)N3CCOCC3)c2)cc1Cl | inconclusive: 18.4 µM [cytotoxic, single point] | –
62 | CCCCn1c(-c2csc3ccccc23)n[nH]c1=S | inconclusive: 20.6 µM [cytotoxic, partial curve, poor fit] | –
63 | Cc1c(C(=O)N(C)c2ccc(Cl)cc2)cnn1-c1ccccc1 | inconclusive: 32.6 µM [cytotoxic, single point] | –
64 | CC1CC1C(=O)OCC(=O)Nc1cc(S(=O)(=O)N2CCCCC2)ccc1Cl (stereo not given) | inconclusive: 20.6 µM [cytotoxic, single point] | –
65 | CC(C)c1ccc(C2NC(=S)NC3=C2C(=O)CCC3)cc1 (stereo not given) | inconclusive: 14.6 µM [cytotoxic, partial curve] | –

Source: PubChem BioAssay AID1347076 (National Center for Advancing Translational Sciences (NCATS), 2019)
